Laboratory results reported in PubChem BioAssay AID602254 (Broad Institute, 2012).
The campaign covered roughly 1,000 compounds. Fewer than 10 were called active.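 How the source made its calls: active means fitted half-maximal concentration no higher than twice the top valid tested dose, with signal falling; inconclusive means flat curve with 30 to 70% inhibition, or poor fit; inactive means the rest.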 The list shows a part of the results. Entries with a potency or affinity are not part of this list.

Target: Golgi-associated PDZ and coiled-coil motif-containing protein (Homo sapiens) (UniProt Q9HD26)
Test: CAL PDZ domain peptide-binding inhibitors, dose response, biochemical, fluorescence polarization, untagged CAL PDZ, cherry-pick, set 2 (AID 602254);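 further: 0% = DMSO neutral control and -100% = unlabeled peptide PRC23 positive control; more negative means stronger blocking of peptide binding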
Conditions: Purified CAL PDZ, TMR peptide fluorescence polarization; at 60 µM (top of the series)

| Compound | activity change, negative = inhibition |
| --- | --- |
| Cc1nc2c(c(C)nn2-c2ccccc2)c(C)c1C | inactive: -4.68% |
| COc1ccccc1OCC(O)Cn1nc(C)cc1C (stereo unspecified) | inactive: 0.574% |
| CCCOC(=O)c1ccc(NC(=O)C2CCCO2)cc1 (stereo unspecified) | inactive: 0.564% |
| CCC(=O)Nc1cccc(NC(=O)c2ccc3c(c2)OCO3)c1 | inactive: 0.613% |
| COc1ccccc1NC(=S)NNC(=O)c1ccc(Cl)cc1Cl | inactive: 3.15% |
| CCCC(=O)N1CCN(c2ccc(NC(=S)NC(=O)c3cccc(C)c3)cc2)CC1 | inactive: 4.12% |
| CC1c2cccn2CCN1S(=O)(=O)c1ccc(F)cc1 (stereo unspecified) | inactive: -0.77% |
| CC(C)CNC(=S)NNC(=O)CC(C)O (stereo unspecified) | inactive: 1.27% |
| CC(NC(=S)NC(=O)c1ccccc1Br)c1ccccc1 (stereo unspecified) | inactive: 1.12% |
| O=C(COc1ccc(Cl)cc1)c1ccc(O)cc1O | inactive: 0.513% |
| Cc1ccc(Cl)c(NC(=O)COC(=O)C2CCC2)c1Cl | inactive: -2.31% |
| COc1ccc(/C=C/c2noc(-c3ccccc3OC(C)=O)n2)cc1 | inactive: -0.883% |
| CC(=O)c1cccc(NC(=O)CCNC(=O)c2cccc(C)c2)c1 | inactive: -1.3% |
| CCc1nnc(NC(=O)c2cc(S(=O)(=O)N3CCCCC3)ccc2C)s1 | inactive: 1.84% |
| O=C(Nc1ccc2c(c1)CCC2)c1ncoc1-c1ccccc1F | inactive: -1.28% |
| CCOc1ccc(S(=O)(=O)NC(C)C(=O)NCc2ccc3c(c2)OCO3)cc1 (stereo unspecified) | inactive: -0.709% |
| COc1cc(COCC(O)CN2CCOCC2)cc(OC)c1OC (stereo unspecified) | inactive: -2.47% |
| Cc1cccc(NC(=O)C2CCN(S(C)(=O)=O)CC2)c1C | inactive: -0.527% |
| COc1ccc(S(=O)(=O)N2CCOC2CNC(=O)C(=O)NCc2ccncc2)cc1 (stereo unspecified) | inactive: -0.076% |
| CCN1C(=O)CS/C1=N\S(=O)(=O)c1ccccc1 | inactive: 4.08% |
| CCN(CC(=O)Nc1cccc(OC)c1)CC(=O)Nc1ccc(C)cc1Cl | inactive: -6.97% |
| COc1cc(SC)ccc1C(=O)N1CCN(Cc2ccc3c(c2)OCO3)CC1 | inactive: 1.09% |
| COc1cc(OC)c(C(=O)NCc2ccc3c(c2)OCO3)cc1OC | inactive: 1.28% |
| O=C(c1cc(COc2ccccc2)on1)N1CCCC(CN2CCOCC2)C1 (stereo unspecified) | inactive: 2.19% |

| Compound | activity change, negative = inhibition |
| --- | --- |
| CC1CCCCC12NC(=O)N(CC(=O)OCc1cccc(F)c1)C2=O (stereo unspecified) | inactive: -1.32% |
| O=C(Nc1ccccc1N1CCOCC1)c1cccnc1 | inactive: 3.51% |
| O=C(NC1CCCC1)C(c1ccccn1)N(Cc1ccc(F)cc1)C(=O)c1csnn1 (stereo unspecified) | inactive: -1.12% |
| O=C(NC1CCN(Cc2ccccc2)C1)c1cc(S(=O)(=O)N2CCOCC2)ccc1Cl (stereo unspecified) | inactive: 1.45% |
| O=C(COC(=O)c1cn(-c2ccccc2)nc1-c1ccccc1)Nc1ncc(Cl)cc1Cl | inactive: -1.75% |
| Cc1ccc(NC(=S)NC(=O)C2CC2)cc1Cl | inactive: 1.65% |
| Cc1cc(NS(=O)(=O)c2c(C(=O)N3CCOCC3)c(C)n(C)c2C)ccc1Br | inactive: 2.18% |
| Cc1ccccc1OCC(=O)OCC(=O)c1cc(C)n(C2CC2)c1C | inactive: -0.267% |
| Cc1ccc(NC(=O)C(NC2CCCC2)c2ccccc2)cc1Cl (stereo unspecified) | inactive: -0.149% |
| O=C(CNC(=O)c1ccccc1Cl)N/N=C/c1ccc2c(c1)OCO2 | inactive: 1.37% |
| Cc1ccc(C(=O)NCC(c2cccs2)N(C)C)cc1S(=O)(=O)N1CCOCC1 (stereo unspecified) | inactive: 1.91% |
| COC(=O)c1ccccc1NC(=O)C1CCN(C(=O)c2cc(OC)cc(OC)c2)CC1 | inactive: -2.8% |
| COc1ccc(CCNS(=O)(=O)c2ccccc2)cc1OC | inactive: -8.76% |
| CCCN(CC(=O)Nc1ccccc1OC)C(=O)c1ccccn1 | inactive: 0.9% |
| CCCN(CC(=O)Nc1cc(C)on1)CC(=O)Nc1ccc(F)c(F)c1F | inactive: -0.264% |
| O=C(NCCc1ccccc1F)c1ccc2c(c1)OCCO2 | inactive: 2.65% |
| O=C(CCN1C(=O)/C(=C\c2ccccc2Cl)SC1=S)Nc1cccnc1 | inactive: -0.105% |
| O=C(c1ccccc1)N1CCN(c2ccccc2)CC1 | inactive: -1.91% |
| Cc1c(Cl)cccc1NC(=S)NCc1ccc2c(c1)OCO2 | inactive: -0.54% |
| COc1ccc2[nH]cc(CCNC(=O)Cc3ccc(F)cc3)c2c1 | inactive: -0.01% |
| COc1ccccc1CN(C)S(=O)(=O)c1cccs1 | inactive: 1.57% |
| CC(=O)c1cccc(NS(=O)(=O)c2ccc(NC(=O)N3CCCCC3)cc2)c1 | inactive: 0.347% |
| COc1ccc(-c2cc3c(=O)n(CC(=O)NCc4ccc(F)cc4)ncn3n2)cc1 | inactive: 4.45% |
| COc1ccc(C(C)(C)C)cc1NC(=O)COC(=O)CN1C(=O)NC2(CCCCC2C)C1=O (stereo unspecified) | inactive: 2.45% |

Entries above with four or more nitrogen atoms (seven):

| Compound | activity change, negative = inhibition |
| --- | --- |
| CCCC(=O)N1CCN(c2ccc(NC(=S)NC(=O)c3cccc(C)c3)cc2)CC1 | inactive: 4.12% |
| CCc1nnc(NC(=O)c2cc(S(=O)(=O)N3CCCCC3)ccc2C)s1 | inactive: 1.84% |
| COc1ccc(S(=O)(=O)N2CCOC2CNC(=O)C(=O)NCc2ccncc2)cc1 (stereo unspecified) | inactive: -0.076% |
| O=C(NC1CCCC1)C(c1ccccn1)N(Cc1ccc(F)cc1)C(=O)c1csnn1 (stereo unspecified) | inactive: -1.12% |
| O=C(COC(=O)c1cn(-c2ccccc2)nc1-c1ccccc1)Nc1ncc(Cl)cc1Cl | inactive: -1.75% |
| CCCN(CC(=O)Nc1cc(C)on1)CC(=O)Nc1ccc(F)c(F)c1F | inactive: -0.264% |
| COc1ccc(-c2cc3c(=O)n(CC(=O)NCc4ccc(F)cc4)ncn3n2)cc1 | inactive: 4.45% |

More entries follow.

| Compound | activity change, negative = inhibition |
| --- | --- |
| O=S(=O)(c1ccccc1)N1CCN(CCc2ccccc2)CC1 | inactive: -1.5% |
| O=C(NCc1cccs1)C1CCCN1S(=O)(=O)c1ccccc1F (stereo unspecified) | inactive: 0.958% |
| Cc1cccc(C(=O)Nc2ccn(C)n2)c1 | inactive: 0.841% |
| CCOc1ccccc1N1C(=O)CN(Cc2ccc(OC)c(OC)c2)C1=S | inactive: -0.417% |
| O=C(O)Cc1sc(-c2ccc(Cl)cc2)nc1-c1ccccc1 | inactive: 3.43% |
| Cc1cc(C(=O)NNC(=O)c2ccc(C(F)(F)F)cc2)no1 | inactive: 0.569% |
| COc1ccc(S(=O)(=O)NCCc2ccncc2)cc1 | inactive: -1.81% |
| NC(=O)NCC(=O)N1CCC(C(O)(c2ccccc2)c2ccccc2)CC1 | inactive: 0.872% |
| O=S1(=O)c2c(F)cccc2OC(COc2ccccc2)CN1CCc1ccc(F)cc1 (stereo unspecified) | inactive: 0.686% |
| CCc1ccc(C(=O)NNC(=O)c2c(CC)noc2C)cc1 | inactive: -3.88% |
| Cc1ccc([C@@H]2CC=C(C(=O)O)[C@H](c3ccccc3)N2S(=O)(=O)c2ccc(C)cc2)cc1 | inactive: 1.02% |
| CN(C)S(=O)(=O)c1ccc(C(=O)NC2CCCc3ccccc32)cc1 (stereo unspecified) | inactive: -0.666% |
| CCC(=O)c1ccc(N2CCCCC2)c(F)c1 | inactive: 0.055% |
| COc1ccc(CN2CCC(Oc3ccc(C(=O)N4CCCC4)cc3)CC2)c(F)c1 | inactive: -0.736% |
| CCN(C(=O)c1cccc(NC(=O)c2ccccc2)c1)C1CCCCC1 | inactive: 2.71% |
| COc1ccccc1CN1CCNC(=O)C1CC(=O)NCc1c(C)n[nH]c1C (stereo unspecified) | inactive: -2.98% |
| CC1CCN(C(=O)COC(=O)c2ccc(N3CCCC3=O)cc2)CC1 | inactive: -1.03% |
| Cc1ccc2c(c1)N(CC(=O)NCCCN1CCN(C)CC1)C(=O)CO2 | inactive: 0.41% |
| C=CCOc1cccc(C(=O)N2CCCC(CCC(=O)NCc3ccccc3F)C2)c1 (stereo unspecified) | inactive: 6.57% |
| COc1ccc(CN(C)C(=O)CNC(=O)CNC(=O)c2ccc(Cl)cc2Cl)cc1F | inactive: 0.378% |
| COc1ccc(NC(=O)Nc2nnc(C(C)(C)C)s2)cc1 | inactive: -1.28% |
| O=C(CN1CCN(c2ccc(O)cc2)CC1)N1CCc2ccccc21 | inactive: -2% |
| CCOc1ccccc1NC(=O)C1CCN(C(=O)Cc2ccccc2)CC1 | inactive: 6.1% |
| Cc1ccccc1NC(=O)c1ccc(NC(=O)C2CCCO2)cc1 (stereo unspecified) | inactive: -2.35% |

| Compound | activity change, negative = inhibition |
| --- | --- |
| O=C(C1CC1)N1CCc2cc(S(=O)(=O)N3CCOCC3)ccc21 | inactive: 2.05% |
| O=C(O)c1ccc(C(=O)Nc2cccc(NC(=O)C3CCCO3)c2)cc1 (stereo unspecified) | inactive: -0.872% |
| Cc1ccccc1CNC(=O)c1ccc2ccccc2n1 | inactive: 0.33% |
| N#Cc1ccc(COC(=O)c2cnc(Cl)c(Cl)c2)cc1 | inactive: -6.12% |
| CC(O)CNCCNCc1cccs1 (stereo unspecified) | inactive: 0.688% |
| CNC(=O)c1cccc(NC(=O)CCCNC(=O)c2ccc(Cl)cc2)c1 | inactive: 1.04% |
| Cc1cc(CN(C)C(=O)C2CCC(=O)N(CCc3cccc(F)c3)C2)on1 (stereo unspecified) | inactive: -0.419% |
| O=C(Cc1ncon1)Nc1ccc(F)c(F)c1F | inactive: -0.699% |
| O=C(Cn1cccc1C(=O)c1ccccc1)NCc1ccccc1Cl | inactive: -3.87% |
| CCOC(=O)c1ccc(-n2c(C)nc3c(cnn3-c3ccccc3Cl)c2=O)cc1 | inactive: -0.176% |
| CCc1ccccc1N(CC(=O)NCCc1ccccc1)C(=O)CCC(=O)Nc1ccccn1 | inactive: -1.54% |
| CCCCCC(=O)NC(=S)Nc1ccc2oc(=O)ccc2c1 | inactive: -2.64% |
| CCOCCCn1c(=S)[nH]c2cc(C(=O)NC3CCCC(C)C3C)ccc2c1=O (stereo unspecified) | inactive: -3.75% |
| CC(C)(C)CN1CCNC(=O)C1CC(=O)NCCN1CCCc2ccccc21 (stereo unspecified) | inactive: -0.23% |
| CCC(C)(C(=O)NC1CCCC1)N(C(=O)CC1NC(=O)NC1=O)c1ccc(C)cc1 (stereo unspecified) | inactive: 2.35% |
| Cc1cc(SCc2cccc(Cl)c2)nc(=O)[nH]1 | inactive: 2.61% |
| COC(=O)c1ccc(NC(=S)Nc2cccc(C)n2)cc1 | inactive: -2.33% |
| COc1ccccc1CN(C)C(=O)c1cc(-c2cc(OC)c(OC)c(OC)c2)nc2ccccc12 | inactive: 6.42% |
| COc1ccc(-c2csc(=NCCO)n2-c2ccccc2)cc1 | inactive: -3.99% |
| Cc1ccc(C(=O)Nc2cccc(C(=O)N/N=C/c3ccc(F)cc3)c2)cc1 | inactive: -1.78% |
| CC(C)N(C(=O)COC(=O)c1cccc(N(C)C)c1)c1ccccc1 | inactive: 3.1% |
| O=C(CNC(=O)CNC(=O)c1ccc(Cl)cc1Cl)NCc1cccc(Cl)c1 | inactive: -0.331% |
| COc1ccc(-c2ncc(CN3CCN(CCC(C)C)C(CCO)C3)cn2)cc1 (stereo unspecified) | inactive: -2.76% |
| CCOc1ccc(S(=O)(=O)N2Cc3ccccc3CC2C(=O)O)cc1 (stereo unspecified) | inactive: -0.217% |
